Laboratory results taken from US5811389 (dated 1998).

Key:
[1] = general procedure: peptide synthesis; p-hydroxymethylphenoxy-polystyrene resin; 4-(2',4'-dimethoxyphenyl-hydroxymethyl)phenoxy-polystyrene resin (Novabiochem); TBTU/DIPEA; HBTU/DIPEA; conditions: trifluoroacetate; for cyclisation yield: cyclisation step; for conjugation yield: conjugation step
[2] = general procedure: peptide synthesis; Fmoc-Lys(Boc)-Sasrin; TBTU/DIPEA; HBTU/DIPEA; conditions: whole synthesis, scale 0.26 mmol, trifluoroacetate (1:2)

Substance	cyclisation yield [1]	conjugation yield [1]	further results
3,7-dimethoxy-10-methyl-4,6-cyclo-[acetyl-glycyl-glycyl-L-alanyl-glycyl-aminomethyl]phenothiazine	24.6%	–	–
4,5-Cyclo-[acetyl-L-valyl-L-arginyl-L-lysyl-L-isoleucyl-aminomethyl]-3,6-dimethoxy-9,9-dimethylxanthene trifluoroacetate	–	–	isolated mass [2]: 26 mg
10-hexyl-3,7-dimethoxy-4,6-cyclo-[acetyl-glycyl-glycyl-L-alanyl-glycyl-aminomethyl]phenothiazine	41.2%	–	–
(6-tert.-butoxycarbonyl-aminomethyl-10-hexyl-3,7-dimethoxy-phenothiazin-4- yl)-acetyl-glycyl-glycyl-L-alanyl-glycine methyl ester	–	77.6%	–
(10-benzyl-6-tert.-butoxycarbonylaminomethyl-3,7-dimethoxy-phenothiazin-4- yl)-acetyl-glycyl-glycyl-L-alanyl-glycine methyl ester	–	82.9%	–
[3,7-dimethoxy-10-methyl-6-(1,3-dioxo-2,3-dihydro-1H-isoindol-2-ylmethyl)- phenothiazin-4-yl]-acetyl-glycyl-glycyl-L-alanyl-glycine methyl ester	–	81.5%	–
